At least one compound was matched to its structure with a doubt left.
Key:
Oral Cavity and Pharynx = test: Sensory qualities of compounds in syrup applied to base of tongue of volunteers; assay type: in vivo, human; settings: 5 mg/mL in cherry-flavored syrup; for Sensation: ~0.8 mL
Protocol: The DIPA compounds was 5 mg/mL in cherry-flavored syrup in a volume of 0.8 mL per dose. The sensory effect were recorded every 5 min for 1 hr.
Tests were on four volunteers, with 3 to 5 trials per substance. Compounds were prepared in cherry-flavored syrup at 5 mg/mL and administered ˜0.8 mL per dose with a 2 mL plastic vial to the base of the tongue. The subjects asked to rate the sensations for cooling intensity, cold discomfort and adverse taste.
The concentration of the DIPA compounds was 5 mg/mL in cherry-flavored syrup administered in a volume of 0.8 mL per dose. The sensory effect were recorded every 5 min for 1 hr.

Sequences of proteins named here, by UniProt entry; tags and fusion partners are left off.
UniProt Q8R4D5, whole entry: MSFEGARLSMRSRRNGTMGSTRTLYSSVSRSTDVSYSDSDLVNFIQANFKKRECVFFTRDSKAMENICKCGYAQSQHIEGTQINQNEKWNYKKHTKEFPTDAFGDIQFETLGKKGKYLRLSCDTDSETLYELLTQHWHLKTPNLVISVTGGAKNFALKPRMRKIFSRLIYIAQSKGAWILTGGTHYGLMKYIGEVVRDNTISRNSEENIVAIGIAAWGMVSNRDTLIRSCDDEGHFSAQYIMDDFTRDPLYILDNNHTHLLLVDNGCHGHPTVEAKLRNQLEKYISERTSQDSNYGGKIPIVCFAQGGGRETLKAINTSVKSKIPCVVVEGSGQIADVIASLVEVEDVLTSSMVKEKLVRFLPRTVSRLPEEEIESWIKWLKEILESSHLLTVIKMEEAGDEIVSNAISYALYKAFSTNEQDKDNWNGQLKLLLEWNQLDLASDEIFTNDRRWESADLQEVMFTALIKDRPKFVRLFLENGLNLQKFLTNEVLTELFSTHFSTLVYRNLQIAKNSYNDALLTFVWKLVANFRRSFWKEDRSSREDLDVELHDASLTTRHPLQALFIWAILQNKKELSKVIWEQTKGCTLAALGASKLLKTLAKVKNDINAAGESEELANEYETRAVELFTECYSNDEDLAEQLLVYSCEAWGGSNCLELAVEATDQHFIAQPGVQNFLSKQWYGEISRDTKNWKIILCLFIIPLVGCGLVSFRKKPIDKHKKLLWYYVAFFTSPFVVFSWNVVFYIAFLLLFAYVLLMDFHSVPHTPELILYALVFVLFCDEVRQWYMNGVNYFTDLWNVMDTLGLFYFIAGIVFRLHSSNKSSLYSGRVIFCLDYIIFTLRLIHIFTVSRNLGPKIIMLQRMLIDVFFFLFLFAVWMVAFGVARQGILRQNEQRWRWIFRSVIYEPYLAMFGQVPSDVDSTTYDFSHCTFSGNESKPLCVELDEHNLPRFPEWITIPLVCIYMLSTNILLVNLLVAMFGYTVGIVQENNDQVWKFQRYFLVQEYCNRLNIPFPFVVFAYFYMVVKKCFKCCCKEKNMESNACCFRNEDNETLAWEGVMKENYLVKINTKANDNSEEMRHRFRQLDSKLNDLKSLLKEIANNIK

TRPM8 = TRPM8 (Mus musculus (Mouse), UniProt Q8R4D5); test: TRPM8 Fura-2 calcium assay in transfected CHO cells (Andersson et al.); assay type: cell-based; settings: for maximal efficacy on activation of the receptor: at supra-maximal concentrations
Protocol: FIG. 4. is a graph of fluorescence response (Δ ratio 340/380) in TRPM8 transfected cells as a function of the logarithm of the concentration of the test compound, expressed in μM, for DIPA-1-7 (black circle), 3,4-7 (open squares), or 3,4-6 (open triangles). The assays were conducted by Andersson et al. of King's College, London, UK, using his methods described in “Modulation of the cold-activated channel TRPM8 by lysophospholipids and polyunsaturated fatty acids. Journal Neuroscience 27 (12): 3347-3355, 2007.
In a second set, tests were made on “mixed” isopropyl-sec-butylphosphorylhexane and heptane analogs described as 3,4-6 and 3,4-7 in Table 2, and results shown in FIG. 4. The data were collected by Andersson et al. of King's College, London, UK, using his methods described in “Modulation of the cold-activated channel TRPM8 by lysophospholipids and polyunsaturated fatty acids. Journal Neuroscience 27 (12): 3347-3355, 2007. Here, the cellular entry of the calcium-sensitive dye Fura-2 was used to study the effect of the test compounds on TRPM8 expressed in Chinese hamster ovary cells. Cells, grown in culture, were seeded at an approximate density of 30,000 cells/well overnight, and loaded for ˜1 hr with 2 µM Fura-2 (Molecular Probes, Leiden, The Netherlands), and then placed on glass coverslips. Test solutions were added with a micropipette positioned close to the cells. Emission intensity from cells was measured for 90 sec, at every 4 or 5 sec, using excitation wavelengths of 340 and 380 nm and an emission of 520 nm. Fluorescence emission intensity ratios at 340 nm/380 nm excitation (R, in individual cells) were recorded with a FlexStation and the ImageMaster suite of software (PTI, South Brunswick, N.J.). Samples were tested in triplicate at each concentration and the averaged values analyzed by non-linear regression using an a sigmoidal function fit of the points to obtain an estimated EC50 (median effective concentration) (GraphPad Prism software, La Jolla, Calif.).
The units (Δ ratio) on the ordinate measure entry of fluorescent calcium probes into transfected cells.

`CCCCCC[P@@](=O)(C(C)C)[C@@H](C)CC` [3,4-6, 1-(Isopropyl-sec-butyl)-phosphinoyl-hexane] was tested, and the “sensory effects” value (Oral Cavity and Pharynx) was “robust cooling”, the Sensation (Oral Cavity and Pharynx) was “cool” and the “TRPM8 potency” value (TRPM8) was “weak TRPM8 potencies”. For the same compound, the “maximal efficacy on activation of the receptor” value (TRPM8) was “do not reach the same degree maximal efficacy”.

`CCCCCCC[P@@](=O)(C(C)C)[C@@H](C)CC` [3,4-7, 1-(Isopropyl-sec-butyl)-phosphinoyl-heptane] was tested, and the “sensory effects” value (Oral Cavity and Pharynx) was “cold, icy cold, and adverse tastes”, the Sensation (Oral Cavity and Pharynx) was “painful cold” and the “TRPM8 potency” value (TRPM8) was “weak TRPM8 potencies”. For the same compound, the “maximal efficacy on activation of the receptor” value (TRPM8) was “do not reach the same degree maximal efficacy”.

Reference: US11406649B2, “Treatment of upper aerodigestive tract disorders and cough” (IVIEW THERAPEUTICS, INC., priority 2018, dated 2022)
